Assay results as given in publication PMC6001135.
These are yes or no findings as the source states them, for the method shown. In cells and extracts the contact can be indirect. Some entries that bind do so weakly or less than the wild type.

Amino acid sequences for entries named in this document (tags omitted).
UniProt P63216: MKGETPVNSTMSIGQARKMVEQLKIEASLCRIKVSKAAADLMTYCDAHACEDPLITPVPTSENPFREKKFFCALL
UniProt P62874: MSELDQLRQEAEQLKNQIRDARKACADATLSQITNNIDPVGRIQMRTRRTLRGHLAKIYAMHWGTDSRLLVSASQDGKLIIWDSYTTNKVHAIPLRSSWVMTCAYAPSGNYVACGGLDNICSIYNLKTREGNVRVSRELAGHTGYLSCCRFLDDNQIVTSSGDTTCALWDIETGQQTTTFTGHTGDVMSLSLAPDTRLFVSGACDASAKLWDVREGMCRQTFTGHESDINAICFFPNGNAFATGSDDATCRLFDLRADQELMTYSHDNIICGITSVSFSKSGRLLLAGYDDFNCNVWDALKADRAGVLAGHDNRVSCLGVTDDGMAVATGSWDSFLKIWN

Molecular target: G-protein γ-subunit Gγ3 (mouse (endogenous in rod outer segments)) (UniProt P63216)
Experiment: co-IP; anti-Gγ2 (mouse) or anti-Gγ3 (rabbit) antibody on Protein G or Protein A Mag Sepharose beads, incubated with 12.5 μg rod outer segment lysate of Gγ1−/− or WT mice overnight at 4°C; 0.1% n-dodecyl-β-maltoside in PBS with protease inhibitors; Gβ1 detected by Western blotting

- binding: binds
Substance: Transducin β-subunit Gβ1 (from UniProt P62874 1-340)
